Record: PubChem BioAssay AID504764 (Drosophila RNAi Screening Center, 2011)

- Test: 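Genome-wide screen for regulators of Notch-driven gene expression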 (primary screen)
- Cell system: Drosophila Kc167 cells
- Reagents: long dsRNA against Drosophila genes
- Time to read-out: about 5 days (4 days dsRNA, then 24 h after transfection)
- Challenge: transfection of constitutively active membrane-tethered Notch lacking the extracellular domain, read 24 h later
- Read-out: 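Firefly luciferase from an E(spl)m3 reporter with active Notch, plus control-promoter and uninduced reporter wells for normalisation; unnormalised counts, duplicate wells a and b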
- Reading the numbers: induced reporter light, run 1, well a and induced reporter light, run 1, well b: higher = more light from the Notch target reporter with active Notch; control promoter light, run 1, well a and control promoter light, run 1, well b: higher = more light from the viral control promoter (cell number, transfection, viability); uninduced reporter light, run 1, well a: higher = more light from the Notch target reporter without active Notch
- Hit rule: 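Wells with low control signal or poorly matching duplicates excluded; duplicates averaged; per source plate, z beyond ±2 for induced/control log2 ratio or beyond ±1.8 for induced/uninduced marks a hit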
- Calls: active = modifier hit (raised or lowered Notch signal); inactive = not a hit
In all, the deposit lists about 22,000 reagents; shown is a random part of those with a known target gene and a result. Of all reagents, 403 (1.9%) are marked active. 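Unnormalised raw counts per well; ratio z-scores behind the hit calls and whether each hit raises or lowers signal are not deposited.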 Not stated in the record: the amount of reagent.

| gene knocked down | dsRNA | induced reporter light, run 1, well a | induced reporter light, run 1, well b | control promoter light, run 1, well a | control promoter light, run 1, well b | uninduced reporter light, run 1, well a | Outcome |
| --- | --- | --- | --- | --- | --- | --- | --- |
| GstZ1 | DRSC16478 | 1.16e5 | 1.62e5 | 77235 | 66835 | 7920 | inactive |
| GluRIIC | DRSC00642 | 2.03e5 | 1.85e5 | 2.06e5 | 2.07e5 | 19290 | inactive |
| lms | DRSC06387 | 1.81e5 | 1.52e5 | 2.87e5 | 3.13e5 | 8305 | inactive |
| side-VII | DRSC14578 | 1.50e5 | 1.49e5 | 81000 | 76635 | 11665 | inactive |
| CG11815 | DRSC08209 | 1.16e5 | 1.74e5 | 2.58e5 | 2.45e5 | 5120 | inactive |
| kis | DRSC00521 | 94250 | 67270 | 64710 | 54075 | 5740 | inactive |
| kis | DRSC00625 | 1.42e5 | 1.40e5 | 1.10e5 | 86635 | 9960 | inactive |
| kis | DRSC00823 | 1.83e5 | 1.95e5 | 2.53e5 | 2.24e5 | 15500 | inactive |
| Sems | DRSC11626 | 35480 | 27145 | 38890 | 34955 | 2380 | inactive |
| CG1812 | DRSC20557 | 2.02e5 | 1.50e5 | 1.28e5 | 1.10e5 | 10525 | inactive |
| Trmt6 | DRSC03272 | 1.85e5 | 1.30e5 | 1.59e5 | 1.74e5 | 9245 | inactive |
| Nrk | DRSC07480 | 80485 | 84850 | 1.10e5 | 1.07e5 | 8400 | inactive |
| mbc | DRSC16995 | 1.95e5 | 1.92e5 | 2.38e5 | 2.20e5 | 14285 | inactive |
| CG3732 | DRSC04410 | 1.79e5 | 2.10e5 | 1.37e5 | 1.57e5 | 13555 | inactive |
| stretch (retired record) | DRSC14347 | 4575 | 3785 | 6695 | 5820 | 305 | inactive |
| stretch (retired record) | DRSC14512 | 84775 | 98850 | 84330 | 76210 | 7640 | inactive |
| stretch (retired record) | DRSC14541 | 70005 | 95145 | 97625 | 62735 | 3992 | inactive |
| stretch (retired record) | DRSC14542 | 9000 | 9945 | 11188 | 11685 | 2475 | inactive |
| stretch (retired record) | DRSC14543 | 79180 | 96930 | 1.23e5 | 97540 | 6555 | inactive |
| CG32195 | DRSC09533 | 1.94e5 | 1.71e5 | 2.74e5 | 3.09e5 | 20490 | inactive |
| S-Lap8 | DRSC06870 | 64015 | 75945 | 95985 | 94995 | 4278 | active |

The list goes on, starting with the last 7 of the part before.
| gene knocked down | dsRNA | induced reporter light, run 1, well a | induced reporter light, run 1, well b | control promoter light, run 1, well a | control promoter light, run 1, well b | uninduced reporter light, run 1, well a | Outcome |
| --- | --- | --- | --- | --- | --- | --- | --- |
| stretch (retired record) | DRSC14347 | 4575 | 3785 | 6695 | 5820 | 305 | inactive |
| stretch (retired record) | DRSC14512 | 84775 | 98850 | 84330 | 76210 | 7640 | inactive |
| stretch (retired record) | DRSC14541 | 70005 | 95145 | 97625 | 62735 | 3992 | inactive |
| stretch (retired record) | DRSC14542 | 9000 | 9945 | 11188 | 11685 | 2475 | inactive |
| stretch (retired record) | DRSC14543 | 79180 | 96930 | 1.23e5 | 97540 | 6555 | inactive |
| CG32195 | DRSC09533 | 1.94e5 | 1.71e5 | 2.74e5 | 3.09e5 | 20490 | inactive |
| S-Lap8 | DRSC06870 | 64015 | 75945 | 95985 | 94995 | 4278 | active |
| borr | DRSC02749 | 52210 | 52235 | 57660 | 42815 | 6445 | inactive |
| CG30466 | DRSC05556 | 1.69e5 | 1.81e5 | 2.25e5 | 2.65e5 | 17682 | inactive |
| Gen | DRSC09679 | 1.16e5 | 1.15e5 | 74935 | 46700 | 11092 | inactive |
| CG7542 | DRSC10868 | 1.39e5 | 1.52e5 | 1.91e5 | 1.45e5 | 6895 | inactive |
| Nrd1 | DRSC19830 | 1.35e5 | 1.24e5 | 1.94e5 | 1.87e5 | 10020 | inactive |
| mrt | DRSC15484 | 1.01e5 | 1.23e5 | 2.07e5 | 1.86e5 | 11105 | inactive |
| CG32280 | DRSC08024 | 1.60e5 | 1.97e5 | 2.07e5 | 1.80e5 | 13460 | inactive |
| Ir85a | DRSC14382 | 93690 | 1.11e5 | 1.01e5 | 66745 | 7355 | inactive |
| CG32700 | DRSC17857 | 1.18e5 | 1.12e5 | 1.88e5 | 2.38e5 | 8460 | inactive |
| CG32700 | DRSC17858 | 1.24e5 | 1.33e5 | 2.31e5 | 1.67e5 | 10160 | inactive |
| RpS19b | DRSC15773 | 1.58e5 | 1.25e5 | 1.86e5 | 1.93e5 | 10825 | inactive |
| gammaCOP | DRSC16955 | 29755 | 27160 | 47255 | 42050 | 1730 | inactive |
| CG44251 | DRSC06856 | 86825 | 88285 | 1.12e5 | 95200 | 8700 | inactive |
| sick | DRSC02090 | 62450 | 39490 | 53175 | 41205 | 2670 | inactive |
| sick | DRSC02301 | 61085 | 54215 | 55155 | 1.01e5 | 4015 | inactive |
| sick | DRSC02302 | 61630 | 50775 | 64320 | 83935 | 3810 | inactive |
| sick | DRSC02303 | 79945 | 52535 | 70895 | 52195 | 5095 | inactive |
| sick | DRSC02306 | 64150 | 52140 | 70775 | 65035 | 5700 | inactive |
| ng4 | DRSC18805 | 1.10e5 | 1.24e5 | 2.31e5 | 1.90e5 | 7690 | inactive |
| CG32237 | DRSC08312 | 2.07e5 | 1.56e5 | 1.76e5 | 1.51e5 | 8050 | inactive |
| CG32237 | DRSC08315 | 1.54e5 | 1.74e5 | 1.85e5 | 2.17e5 | 6725 | inactive |
| Eglp1 | DRSC04502 | 93870 | 96300 | 67025 | 70740 | 6575 | inactive |
| Npc2a | DRSC00698 | 99455 | 94005 | 95120 | 58085 | 8860 | inactive |
| CG6254 | DRSC16002 | 1.25e5 | 1.38e5 | 87085 | 1.08e5 | 10760 | inactive |
| t-Grip128 | DRSC07853 | 1.96e5 | 1.80e5 | 1.93e5 | 1.72e5 | 12330 | inactive |
| CG10936 | DRSC05669 | 1.28e5 | 1.25e5 | 1.82e5 | 1.65e5 | 10620 | inactive |
| CG10936 | DRSC05670 | 82665 | 94135 | 1.44e5 | 1.11e5 | 8555 | inactive |
| CG10936 | DRSC06018 | 1.04e5 | 68490 | 78160 | 86440 | 9095 | inactive |
| CG14110 | DRSC10113 | 2.26e5 | 1.79e5 | 2.10e5 | 1.84e5 | 13878 | inactive |
